Laboratory results as given in patent US9733244B2, “Means and methods for diagnosing and treating multiple sclerosis” (KLINIKUM RECHTS DER ISAR DER TECHNISCHEN UNIVERSITÄT MÜNCHEN, priority 2011, dated 2017).

Test system: anti-KIR4.1 antibody (serum IgG)
Assay: ELISA with plate bound KIR4.1 extracellular peptides, serum reactivity
Assay type: binding, human
Details: for share of MS patients with serum antibody reactivity to the peptide: sera of MS patients
[1] = positive = OD above median of HD plus 5 SD

Row | Sequence | share of MS patients with serum antibody reactivity to the peptide [1] | share of OND patients with serum antibody reactivity to the peptide (sera of OND patients, positive = OD above median of HD plus 5 SD) | serum antibody reactivity to the peptide in HD or OND patients (sera of HD or OND patients)
1 | GVVWYLVAVAHGDLLELDPPANHTPCVVQVHTLTGAFL (homo sapiens) [KIR4.183-120, peptide with the first (large) extracellular loop of KIR4.1, residues 83-120] | 30.3% | 1.4% | –
2 | TIGYGFRYISEECPLAIVLLI (homo sapiens) [KIR4.1128-148, peptide representing the smaller extracellular domain of KIR4.1, residues 128-148] | 4% | – | no
